From a melanoma drug combination screen (doi:10.1371/journal.pone.0140310); values rounded.

Drug key:
lestaurtinib: C[C@]12O[C@H](C[C@]1(O)CO)n1c3ccccc3c3c4c(c5c6ccccc6n2c5c31)CNC4=O at 0.02 µM
crizotinib: C[C@@H](Oc1cc(-c2cnn(C3CCNCC3)c2)cnc1N)c1c(Cl)ccc(F)c1Cl at 1 µM
vismodegib: CS(=O)(=O)c1ccc(C(=O)Nc2ccc(Cl)c(-c3ccccn3)c2)c(Cl)c1 at 5 µM
BI-78D3: O=c1[nH]nc(Sc2ncc([N+](=O)[O-])s2)n1-c1ccc2c(c1)OCCO2 at 1 µM
FH535: Cc1cc([N+](=O)[O-])ccc1NS(=O)(=O)c1cc(Cl)ccc1Cl at 5 µM
GW441756: Cn1cc(/C=C2\C(=O)Nc3cccnc32)c2ccccc21 at 2 µM
nutlin-3: COc1ccc(C2=N[C@@H](c3ccc(Cl)cc3)[C@@H](c3ccc(Cl)cc3)N2C(=O)N2CCNC(=O)C2)c(OC(C)C)c1 at 0.5 µM
A-769662: N#Cc1c(O)c2c(-c3ccc(-c4ccccc4O)cc3)csc2[nH]c1=O at 10 µM
sunitinib: CCN(CC)CCNC(=O)c1c(C)[nH]c(/C=C2\C(=O)Nc3ccc(F)cc32)c1C at 2 µM
nilotinib: Cc1cn(-c2cc(NC(=O)c3ccc(C)c(Nc4nccc(-c5cccnc5)n4)c3)cc(C(F)(F)F)c2)cn1 at 1 µM

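Human melanoma cell lines in 1,536-well plates were treated with two drugs together for 72 h, then fixed, stained and imaged. The read-out is the fraction of cleaved-PARP-positive nuclei, in % of that fraction in the DMSO control; 200 means twice the control level of this apoptosis marker. Every drug was used at one fixed concentration, the higher of two screened. These are primary screening values without error estimates. Basal and induced levels differ widely between cell lines.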 This is part of the screen, not chosen by result. An entry leaves out what has no value listed here. A dash means that no value is listed here.

{"combination": "FH535 + vismodegib", "COLO 792": 231, "501mel": 219, "A375": 149, "SK-MEL-2": 61.2, "RPMI-7951": 116, "IPC-298": 115}
{"combination": "GW441756 + vismodegib", "COLO 792": 46.1, "501mel": 121, "A375": 144, "SK-MEL-2": 22.1, "RPMI-7951": 117, "IPC-298": 172}
{"combination": "nilotinib + A-769662", "COLO 792": 58.6, "501mel": 31.3, "A375": 36.3, "SK-MEL-2": 79.7, "RPMI-7951": 163, "IPC-298": 34.4}
{"combination": "nutlin-3 + BI-78D3", "COLO 792": 65.8, "A375": 75.7, "SK-MEL-2": 88.3, "RPMI-7951": 77.7, "IPC-298": 91.5}
{"combination": "vismodegib + lestaurtinib", "COLO 792": 198, "A375": 82.9, "SK-MEL-2": 90.3, "RPMI-7951": 54.9, "IPC-298": 173}
{"combination": "BI-78D3 + lestaurtinib", "COLO 792": 116, "A375": 55.1, "SK-MEL-2": 61.0, "RPMI-7951": 79.0, "IPC-298": 54.8}
{"combination": "nutlin-3 + GW441756", "COLO 792": 29.0, "501mel": 68.6, "A375": 135, "SK-MEL-2": 9.8, "RPMI-7951": 42.3, "IPC-298": 36.1}
{"combination": "FH535 + lestaurtinib", "COLO 792": 138, "501mel": 214, "A375": 141, "SK-MEL-2": 100, "RPMI-7951": 151, "IPC-298": 85.3}
{"combination": "nilotinib + FH535", "COLO 792": 53.6, "501mel": 113, "A375": 42.7, "SK-MEL-2": 77.0, "RPMI-7951": 23.1, "IPC-298": 58.0}
{"combination": "A-769662 + sunitinib", "COLO 792": 172, "501mel": 190, "A375": 52.0, "SK-MEL-2": 221, "RPMI-7951": 129, "IPC-298": 158}
{"combination": "sunitinib + GW441756", "COLO 792": 223, "501mel": 525, "A375": 133, "SK-MEL-2": 46.1, "RPMI-7951": 210, "IPC-298": 113}
{"combination": "nutlin-3 + nilotinib", "COLO 792": 87.2, "A375": 172, "SK-MEL-2": 112, "RPMI-7951": 159, "IPC-298": 154}
{"combination": "crizotinib + vismodegib", "COLO 792": 127, "A375": 258, "SK-MEL-2": 114, "RPMI-7951": 98.7, "IPC-298": 252}
{"combination": "nutlin-3 + sunitinib", "COLO 792": 143, "A375": 370, "SK-MEL-2": 65.4, "RPMI-7951": 58.2, "IPC-298": 493}
{"combination": "nilotinib + BI-78D3", "COLO 792": 51.3, "A375": 38.7, "SK-MEL-2": 96.1, "RPMI-7951": 263, "IPC-298": 98.5}
{"combination": "A-769662 + crizotinib", "COLO 792": 63.5, "501mel": 48.5, "A375": 70.4, "SK-MEL-2": 148, "RPMI-7951": 23.2, "IPC-298": 38.7}
{"combination": "GW441756 + nilotinib", "COLO 792": 27.6, "501mel": 93.4, "A375": 53.1, "SK-MEL-2": 51.5, "RPMI-7951": 66.4, "IPC-298": 43.3}
{"combination": "BI-78D3 + crizotinib", "COLO 792": 58.7, "A375": 71.6, "SK-MEL-2": 62.1, "RPMI-7951": 81.0, "IPC-298": 63.5}
{"combination": "nilotinib + crizotinib", "COLO 792": 101, "A375": 77.2, "SK-MEL-2": 142, "RPMI-7951": 353, "IPC-298": 173}
{"combination": "nutlin-3 + vismodegib", "COLO 792": 37.8, "A375": 86.9, "SK-MEL-2": 121, "RPMI-7951": 51.6, "IPC-298": 110}
{"combination": "sunitinib + crizotinib", "COLO 792": 154, "A375": 232, "SK-MEL-2": 91.3, "RPMI-7951": 403, "IPC-298": 299}
{"combination": "FH535 + BI-78D3", "COLO 792": 37.2, "A375": 261, "RPMI-7951": 197, "IPC-298": 152}
{"combination": "A-769662 + vismodegib", "COLO 792": 89.6, "501mel": 39.2, "A375": 73.5, "SK-MEL-2": 79.8, "RPMI-7951": 46.9, "IPC-298": 35.5}
{"combination": "FH535 + nutlin-3", "COLO 792": 28.1, "501mel": 98.7, "A375": 256, "SK-MEL-2": 31.8, "RPMI-7951": 55.3, "IPC-298": 200}
{"combination": "lestaurtinib + sunitinib", "COLO 792": 274, "A375": 346, "SK-MEL-2": 186, "RPMI-7951": 61.0, "IPC-298": 244}
{"combination": "FH535 + crizotinib", "COLO 792": 234, "501mel": 107, "A375": 147, "SK-MEL-2": 69.1, "RPMI-7951": 66.9, "IPC-298": 311}
{"combination": "GW441756 + A-769662", "COLO 792": 52.8, "501mel": 150, "A375": 22.4, "SK-MEL-2": 82.0, "RPMI-7951": 36.5, "IPC-298": 47.6}

For reference, 3 entries once more:

Combination	COLO 792	501mel	A375	SK-MEL-2	RPMI-7951	IPC-298
nilotinib + BI-78D3	51.3	-	38.7	96.1	263	98.5
nilotinib + FH535	53.6	113	42.7	77.0	23.1	58.0
nutlin-3 + BI-78D3	65.8	-	75.7	88.3	77.7	91.5